Consider 34 compounds from the supplement of paper PMC8256030.

Values joined by “and” are separate entries in the source; they are usually repeats but may differ in a detail not shown here. Equal entries are not always repeated. ± gives the standard deviation of the averaged measurements. Some of the results follow. Single values are uncertain here, since repeats match poorly.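 HEK293T cells were given each compound shortly before transfection with a reporter in which red mCherry is followed by the SARS-CoV-2 frameshift element and then GFP in the −1 frame, so GFP appears only after frameshifting.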

This experiment deals with HEK293T. In words: percent viability (nuclei count) relative to control; higher = more viable cells. To be noted: 10 µM; 24 h.
Turning to `CC(=O)[C@H]1CC[C@H]2[C@@H]3CC=C4C[C@@H](OC(=O)CCC(=O)O)CC[C@]4(C)[C@H]3CC[C@]12C`, the percent viability is 226%. Regarding `CN=C(N)NCCCC(N)C(=O)O` (centres undefined), the percent viability came out at 209%. As for `Cn1cnc([N+](=O)[O-])c1Sc1ncnc2nc[nH]c12`, the percent viability came to 126%. To `CC(=O)Oc1c(C)c(C)c2c(c1C)CCC(C)(CCC[C@H](C)CCC[C@H](C)CCCC(C)C)O2` (some centres undefined) belongs 290%. For `CCC1(c2c[nH]cn2)Cc2ccccc2C1` [atipamezole], the percent viability stood at 429%. As for `CCC[C@@H]1C[C@@H](C(=O)N[C@@H]([C@H]2O[C@H](SC)[C@H](O)[C@@H](O)[C@H]2O)[C@H](C)Cl)N(C)C1` [Cleocin], the figure is 45.8% and 51.4%.

Regarding `CC(C)n1c(/C=C/[C@@H](O)C[C@@H](O)CC(=O)O)c(-c2ccc(F)cc2)c2ccccc21`, the percent viability came to 61.2%.

For `O=C(Nc1ccccc1)c1ccccc1O`, the percent viability came out at 393%. As for `CC[C@@]12C=C(C(=O)OC)n3c4c(c5ccccc53)CCN(CCC1)[C@H]42` [apovincamine], the figure is 133 ± 26%; as for `O=c1[nH]c(=O)n([C@H]2C[C@H](O)[C@@H](CO)O2)cc1I` [idoxuridine], 220% and 215%; as for `CC(C(=O)O)c1ccc(-c2cn3ccccc3n2)cc1` (centres undefined) [miroprofen], 122%. To `CN(C)CCC[C@@]1(c2ccc(F)cc2)OCc2cc(C#N)ccc21` [escitalopram] belongs 181% and 161%; to `CC[C@H](C)[C@H](N)C1=N[C@H](C(=O)N[C@@H](CC(C)C)C(=O)N[C@H](CCC(=O)O)C(=O)N[C@H](C(=O)N[C@H]2CCCCNC(=O)[C@H](CC(N)=O)NC(=O)[C@@H](CC(=O)O)NC(=O)[C@H](Cc3cnc[nH]3)NC(=O)[C@@H](Cc3ccccc3)NC(=O)[C@H]([C@@H](C)CC)NC(=O)[C@@H](CCCN)NC2=O)[C@@H](C)CC)CS1` [bacitracin], 144%; to `CCCCOC(=O)c1ccccc1Nc1cccc(C(F)(F)F)c1` [ufenamate], 198%.

In the case of `Cc1c(Cl)cccc1Nc1ncccc1C(=O)O` [clonixin], the percent viability is 197%.

Take `CC(=O)O[C@H]1C[C@@]2(C)[C@@H](C[C@@H](O)[C@H]3[C@@]4(C)CC[C@@H](O)[C@@H](C)[C@@H]4CC[C@@]32C)/C1=C(\CCC=C(C)C)C(=O)O` [Fusidic Acid]: the percent viability stood at 217%. On to `CCCCCCCC/C=C\CCCCCCCC(=O)NCc1ccc(O)c(OC)c1` [olvanil], for which the percent viability is 153%. Take `O=C1CN(/N=C/c2ccc(-c3ccc([N+](=O)[O-])cc3)o2)C(=O)N1` [dantrolene]: the percent viability was 198%. Turning to `CCN(CC)CCNc1ccc(CO)c2sc3ccccc3c(=O)c12` [hycanthone], the percent viability was 236%. To `COc1ccc(-n2nc(CCC(=O)N(C)O)cc2-c2ccc(Cl)cc2)cc1` [tepoxalin] belongs 158%. As for `CN(C)C/C=C(/c1ccc(Br)cc1)c1cccnc1` [zimeldine], the figure is 132%; as for `CCOC(=O)c1ccc(OC(=O)CCCCCNC(=N)N)cc1` [gabexate], 191%. In the case of `CCCCC[C@H](O)/C=C/[C@@H]1[C@@H](C/C=C\CCCC(=O)O)[C@@H](O)C[C@H]1O` [Dinoprost], the percent viability came out at 253%.

Regarding `COc1cc(C(=O)OCCCN2CCCN(CCCOC(=O)c3cc(OC)c(OC)c(OC)c3)CC2)cc(OC)c1OC` [dilazep], the percent viability was determined as 154%. As for `CCCc1nn(C)c2c(=O)[nH]c(-c3cc(S(=O)(=O)N4CCN(C)CC4)ccc3OCC)nc12`, the figure is 218%; as for `CCN(CC)CCOC(=O)c1ccc(N)cc1` [procaine], 111%; as for `C[C@]12CCC(=O)C=C1CC[C@@H]1[C@@H]2[C@@H](O)C[C@]2(C=O)[C@@H](C(=O)CO)CC[C@@H]12` [aldosterone], 159%. Take `CCC1=C(C)CN(C(=O)NCCc2ccc(S(=O)(=O)NC(=O)N[C@H]3CC[C@H](C)CC3)cc2)C1=O` [glimepiride]: the percent viability was found to be 64.6%.

For `CC(=O)NC1C(O)CC(O)(C(=O)O)OC1C(O)C(O)CO` (centres undefined), the percent viability turned out to be 370%.

Regarding `Cc1cc(C#N)cc(C)c1Oc1nc(Nc2ccc(C#N)cc2)nc(N)c1Br` [etravirine], the percent viability turned out to be 48%.

Consider `CCC(=O)O[C@]1(C(=O)SCF)[C@H](C)C[C@H]2[C@@H]3C[C@H](F)C4=CC(=O)C=C[C@]4(C)[C@@]3(F)[C@@H](O)C[C@@]21C`, for which the percent viability was determined as 157%.

Take `CN1CCC(=C2c3ccccc3C=Cc3ccccc32)CC1` [cyproheptadine]: the percent viability was 353% and 263%. As for `CCOC(=O)C1=C(C)NC(C)=C(C(=O)OCC)C1c1ccccc1/C=C/C(=O)OC(C)(C)C` [lacidipine], the figure is 216%; as for `NCCC(O)(P(=O)(O)O)P(=O)(O)O` [Pamidronate·2Na·5H2O], 151%.
